Measured values from PubChem BioAssay AID192 (DTP/NCI, 2004).
The list shows only some results of the screen, not a fair sample: it is rich in T/C values a quarter to a half above the control, in often repeated tests (any T/C) and in doses without a T/C. Further doses and runs are listed elsewhere. T/C is the treated group as % of the vehicle group. Some doses have a count of surviving animals in place of a T/C: the source holds a T/C of zero for them, seemingly a mark for toxic or unscored doses. Some doses without a T/C left all or most animals alive at the check, yet need not have been tolerated: the source hardly ever lists a survival T/C far under the control, and the zero likely stands for such cases as well. Survivors were counted at the toxicity check, usually on the fifth day, unless a day is given; later deaths do not show. Schedules are NCI's codes, taken here to give the interval after Q, in days (D) or hours (H), and the number of doses after X. Some doses were run more than once; the values are given in rising order. Where survival is the endpoint, the PubChem record calls one and a half times the control and up active, and a quarter to a half above the control has no call in these data; cut-offs in other NCI protocols can differ. Some T/C values are followed by the survivors on the day toxicity was checked, most often the fifth; where none is given, no animal had died by that day.

System: BDF1 mice, B16 melanoma ip, median survival T/C
Assay: NCI In Vivo Anticancer Drug Screen. Data for tumor model B16 Melanoma (intraperitoneal) in B6D2F1 (BDF1) mice
Details: T/C endpoint: median survival time, higher T/C = longer survival
How it was run: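 Each result divides a survival or tumor-size measurement in the compound-treated group by the same measurement in the vehicle group.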

[1] = dose: 200.0 mg/kg/injection, schedule: Q01DX009 (ip), vehicle: saline with Tween-80
[2] = dose: 50.0 mg/kg/injection, schedule: Q01DX009 (ip), vehicle: saline
[3] = dose: 100.0 mg/kg/injection, schedule: Q01DX009 (ip), vehicle: saline
[4] = dose: 200.0 mg/kg/injection, schedule: Q01DX009 (ip), vehicle: saline
[5] = dose: 400.0 mg/kg/injection, schedule: Q01DX009 (ip), vehicle: saline
[6] = dose: 100.0 mg/kg/injection, schedule: Q01DX009 (ip), vehicle: Klucel (hydroxypropylcellulose) (HPC)
[7] = dose: 50.0 mg/kg/injection, schedule: Q04DX003 (ip), vehicle: Klucel (hydroxypropylcellulose) (HPC)
[8] = dose: 100.0 mg/kg/injection, schedule: Q04DX003 (ip), vehicle: Klucel (hydroxypropylcellulose) (HPC)
[9] = dose: 12.5 mg/kg/injection, schedule: Q01DX009 (ip), vehicle: saline
[10] = dose: 12.5 mg/kg/injection, schedule: Q01DX009 (ip), vehicle: Klucel (hydroxypropylcellulose) (HPC)
[11] = dose: 200.0 mg/kg/injection, schedule: Q01DX009 (ip), vehicle: Klucel (hydroxypropylcellulose) (HPC)
[12] = dose: 25.0 mg/kg/injection, schedule: Q01DX009 (ip), vehicle: Klucel (hydroxypropylcellulose) (HPC)
[13] = dose: 50.0 mg/kg/injection, schedule: Q01DX009 (ip), vehicle: Klucel (hydroxypropylcellulose) (HPC)
[14] = dose: 400.0 mg/kg/injection, schedule: Q01DX009 (ip), vehicle: Klucel (hydroxypropylcellulose) (HPC)

## COc1cccc2c1C(=O)c1c(O)c3c(c(O)c1C2=O)C[C@@](O)(C(C)O)C[C@@H]3OC1CC(N2CCOCC2)C(O)C(C)O1 (some centres undefined)
dose: 500.0 micrograms/kg/injection, schedule: Q01DX001 (ip), vehicle: water
  survivor count: 2 of 10

## NC(=O)CC(NC(=O)CCl)C(=O)O (centres undefined)
[1]
  survivor count: 10 of 10

## CN1CCCCC1CCN1c2ccccc2Sc2ccc(Cl)cc21 (centres undefined)
[2]
  survivor count: 10 of 10
[3]
  survivor count: 7 of 10
[4]
  survivor count: 1 of 10
[5]
  survivor count: 0 of 10

## CCN1C(=O)CC2(CCN(C)CC2)C1=O
[4]
  survivor count: 10 of 10
[5]
  survivor count: 9 of 10

## COc1ccccc1N1CCN(CCCC(=O)c2ccc(F)cc2)CC1
[6]
  survivor count: 10 of 10

## C(=C\c1cnc2ccccc2n1)/c1ccc2c(c1)OCO2
dose: 300.0 mg/kg/injection, schedule: Q01DX009 (ip), vehicle: Klucel (hydroxypropylcellulose) (HPC)
  survivor count: 10 of 10

## [N-]=C(CC(=O)c1ccccc1)c1ccccc1.[N-]=C(CC(=O)c1ccccc1)c1ccccc1.[Ni+2]
dose: 25.0 mg/kg/injection, schedule: Q04DX003 (ip), vehicle: Klucel (hydroxypropylcellulose) (HPC)
  survivor count: 10 of 10
[7]
  survivor count: 10 of 10
[8]
  survivor count: 10 of 10

## CC(NC1=NCCO1)c1cccc2ccccc12 (centres undefined)
dose: 12.5 mg/kg/injection, schedule: Q04DX003 (ip), vehicle: saline with Tween-80
  T/C: 143 % of control
dose: 25.0 mg/kg/injection, schedule: Q04DX003 (ip), vehicle: saline with Tween-80
  T/C: 143 % of control

## N#CCC(=O)O
dose: 75.0 mg/kg/injection, schedule: Q01DX009 (ip), vehicle: saline
  survivor count: 10 of 10

## COC(=O)Nc1nc2ccc(C(=O)c3ccccc3)cc2[nH]1
dose: 30.0 mg/kg/injection, schedule: Q04DX003 (ip), vehicle: saline with Tween-80
  T/C: 128 % of control
dose: 32.0 mg/kg/injection, schedule: Q04DX003 (ip), vehicle: saline with Tween-80
  T/C: 127 % of control [5 of 6 alive]
dose: 40.0 mg/kg/injection, schedule: Q04DX003 (ip), vehicle: saline with Tween-80
  T/C: 128 % of control
dose: 64.0 mg/kg/injection, schedule: Q04DX003 (ip), vehicle: saline with Tween-80
  T/C: 132 % of control
dose: 128.0 mg/kg/injection, schedule: Q04DX003 (ip), vehicle: saline with Tween-80
  survivor count: 5 of 6
dose: 256.0 mg/kg/injection, schedule: Q04DX003 (ip), vehicle: saline with Tween-80
  survivor count: 1 of 6
dose: 400.0 mg/kg/injection, schedule: Q04DX003 (oral), vehicle: saline with Tween-80
  T/C: 130 % of control
dose: 512.0 mg/kg/injection, schedule: Q04DX003 (ip), vehicle: saline with Tween-80
  survivor count: 0 of 6

## Nc1cc2[nH]cnc2c(=O)[nH]1
[9]
  T/C: 129 % of control
[2]
  T/C: 127 % of control
[3]
  T/C: 129 % of control
[4]
  T/C: 148 % of control
[5]
  survivor count: 9 of 10
dose: 400.0 mg/kg/injection, schedule: Q01DX009 (ip), vehicle: suspension in saline
  survivor count: 7 of 10

## CC(Cc1ccccc1)NCCc1c2ccccc2nc2ccccc12 (centres undefined)
[10]
  survivor count: 10 of 10
[6]
  survivor count: 8 of 10 and 10 of 10
[11]
  survivor count: 8 of 10

## CN(C)c1ccc2c(c1)C(Br)c1ccccc1-2 (centres undefined)
[7]
  survivor count: 10 of 10
[8]
  survivor count: 10 of 10
dose: 200.0 mg/kg/injection, schedule: Q04DX003 (ip), vehicle: Klucel (hydroxypropylcellulose) (HPC)
  survivor count: 8 of 10

## CCOC(=O)c1ccc(NC(=O)Nc2nncs2)cc1
dose: 100.0 mg/kg/injection, schedule: Q01DX009 (ip), vehicle: distilled water + Tween-80
  survivor count: 7 of 10
dose: 200.0 mg/kg/injection, schedule: Q01DX009 (ip), vehicle: distilled water + Tween-80
  survivor count: 6 of 10

## CN1CCN(CCCN2c3ccccc3Sc3ccc(C(F)(F)F)cc32)CC1
dose: 1.56 mg/kg/injection, schedule: Q01DX009 (ip), vehicle: saline
  survivor count: 10 of 10
dose: 25.0 mg/kg/injection, schedule: Q01DX009 (ip), vehicle: saline
  survivor count: 10 of 10
[2]
  survivor count: 3 of 10
[3]
  survivor count: 0 of 10
[4]
  survivor count: 0 of 10
[5]
  survivor count: 0 of 10

## CCC1CN1P(=O)(N(CC)CC)N1CC1CC (centres undefined)
[1]
  survivor count: 10 of 10

## COCC1OC(OC2OCC3OC4(OCC(O)(C(C)OC)C5OCOC54)OC3C2OC)C(OC)C(O)C1OC1OC(C)C(OC)C(OC2OC(C)C3OC4(CC(O)C(OC5CC(OC6CC(C)([N+](=O)[O-])C(OC)C(C)O6)C(OC(=O)c6c(C)c(Cl)c(O)c(Cl)c6OC)C(C)O5)C(C)O4)OC3(C)C2O)C1O (centres undefined)
[3]
  survivor count: 10 of 10

## CN1CCC(=C2c3ccccc3C=Cc3ccccc32)CC1
[9]
  survivor count: 10 of 10
[3]
  survivor count: 4 of 10
[4]
  survivor count: 0 of 10
[5]
  survivor count: 0 of 10

## CC[C@H]1CN2CCc3cc(OC)c(OC)cc3[C@@H]2C[C@@H]1C[C@H]1NCCc2cc(OC)c(OC)cc21
dose: 7.0 mg/kg/injection, schedule: Q01DX009 (ip), vehicle: saline
  survivor count: 9 of 10
dose: 14.0 mg/kg/injection, schedule: Q01DX009 (ip), vehicle: saline
  survivor count: 9 of 10 and 10 of 10
dose: 28.0 mg/kg/injection, schedule: Q01DX009 (ip), vehicle: saline
  survivor count: 0 of 10
dose: 32.7 mg/kg/injection, schedule: Q04DX003 (ip), vehicle: saline
  survivor count: 7 of 8

## COc1cc([C@@H]2c3cc4c(cc3[C@H](O)[C@H]3COC(=O)[C@H]23)OCO4)cc(OC)c1OC
dose: 16.0 mg/kg/injection, schedule: Q01DX009 (ip), vehicle: saline
  survivor count: 10 of 10

## CCCCCCCCSCCO
dose: 50.0 mg/kg/injection, schedule: Q01DX009 (ip), vehicle: saline with Tween-80
  survivor count: 10 of 10

## CCOC(=O)C(=Cc1ccc(C=C(C(=O)OCC)C(=O)OCC)cc1)C(=O)OCC
[6]
  survivor count: 4 of 6

## CC(=O)NC(C=O)C(O)C(O)C(O)C(=O)O (centres undefined) (tested in a mixture with another compound)
[12]
  survivor count: 3 of 10
[13]
  survivor count: 5 of 10
[6]
  survivor count: 0 of 10

## C=C(C)[C@@H]1CC[C@@H]2C(=CC[C@]3(C)C([C@H](C)CC/C=C(/C)C(=O)O)CC[C@@]23C)[C@@]1(C)CCC(=O)O (some centres undefined)
dose: 90.0 mg/kg/injection, schedule: Q01DX009 (ip), vehicle: saline + alcohol
  survivor count: 10 of 10

## Clc1ccc2c(c1)C(=P(c1ccccc1)(c1ccccc1)c1ccccc1)c1cc(Cl)cc(Cl)c1-2
dose: 400.0 mg/kg/injection, schedule: Q01DX009 (ip), vehicle: saline with Tween-80
  survivor count: 6 of 6
dose: 800.0 mg/kg/injection, schedule: Q01DX009 (ip), vehicle: saline with Tween-80
  survivor count: 6 of 6

## O=C(NC(CS)C(=O)O)OCc1ccccc1 (centres undefined)
[11]
  survivor count: 6 of 10

## O=c1cc(-c2ccccc2)nc(Nc2nc3ccc([N+](=O)[O-])cc3[nH]2)[nH]1
[11]
  survivor count: 10 of 10
[14]
  survivor count: 10 of 10

## CCSc1nc2nccnc2c(=O)[nH]1
[14]
  survivor count: 0 of 10

## O=c1cccccc1O.O=c1cccccc1O.[Cu]
dose: 1.56 mg/kg/injection, schedule: Q01DX009 (ip), vehicle: Klucel (hydroxypropylcellulose) (HPC)
  survivor count: 10 of 10 and 6 of 6
dose: 3.12 mg/kg/injection, schedule: Q01DX009 (ip), vehicle: Klucel (hydroxypropylcellulose) (HPC)
  survivor count: 10 of 10
dose: 6.25 mg/kg/injection, schedule: Q01DX009 (ip), vehicle: Klucel (hydroxypropylcellulose) (HPC)
  survivor count: 10 of 10
[10]
  survivor count: 9 of 10
[12]
  survivor count: 0 of 10
[13]
  survivor count: 0 of 10
[6]
  survivor count: 0 of 10
[11]
  survivor count: 0 of 10
[14]
  survivor count: 0 of 10

## Cc1c2cccc(F)c2c[n+]2ccccc12
[12]
  T/C: 128 % of control
[13]
  survivor count: 5 of 10
[6]
  survivor count: 0 of 10
